Here are results for one substance from patent publication US20070249022A1.

Amino acid sequences for entries named in this document (tags omitted). A change or cut given only in a name is not applied to a line headed by its entry.
UniProt P27037: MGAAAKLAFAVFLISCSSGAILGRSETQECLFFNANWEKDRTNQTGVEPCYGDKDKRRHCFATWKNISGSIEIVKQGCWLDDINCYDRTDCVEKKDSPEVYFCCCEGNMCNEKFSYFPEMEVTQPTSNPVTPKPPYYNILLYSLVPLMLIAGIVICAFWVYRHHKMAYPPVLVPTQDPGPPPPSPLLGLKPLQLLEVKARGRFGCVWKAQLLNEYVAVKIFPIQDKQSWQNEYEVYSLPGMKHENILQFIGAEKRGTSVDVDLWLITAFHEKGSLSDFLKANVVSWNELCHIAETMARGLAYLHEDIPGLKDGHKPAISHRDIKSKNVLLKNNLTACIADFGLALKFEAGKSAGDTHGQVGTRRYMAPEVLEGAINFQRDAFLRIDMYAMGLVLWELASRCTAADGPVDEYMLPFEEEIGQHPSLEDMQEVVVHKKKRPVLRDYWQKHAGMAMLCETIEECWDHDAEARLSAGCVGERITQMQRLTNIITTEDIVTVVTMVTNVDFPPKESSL

Results are given in words; binding and its absence hold for the method and conditions named. Some entries that bind do so weakly or less than the wild type.

For the assay, the target named is T1, GDF-11 (UniProt O95390).
T1 sequence (looked up): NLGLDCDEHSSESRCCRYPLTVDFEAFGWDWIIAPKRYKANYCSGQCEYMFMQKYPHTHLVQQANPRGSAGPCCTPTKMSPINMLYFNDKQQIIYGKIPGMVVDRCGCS
In words: Biacore SPR, GDF-11 amine-coupled on CM5 chip. In general terms: SPR reads the build-up and loss of mass on a sensor chip optically.

As for “ActRIIa-mFc (from UniProt P27037 21-135) (Fc fusion)”, the binding entry is listed as “binds”.
